{"source": "patent US20170042929A9", "about": "“Methods of Treating Neurological Diseases” (priority 2012, published 2017)", "origin": "cited, not measured here", "system": "SMEI seizures", "settings": "previously tested; cited from earlier work", "note": "For at least one compound, name, drawing or mass did not settle the structure.", "data": [{"smiles": "CCC1(c2ccccc2)C(=O)NC(=O)NC1=O", "note": "[phenobarbital]", "values": [{"measurement": "efficacy against SMEI seizures", "result": "none of these agents worked reliably"}]}]}
